Laboratory results: US20150044251A1 (Novartis, published 2015)
These are yes or no findings as the source states them, for the method shown. Some results given as binding are weak or reduced against the parent protein; the word gives no strength.

By UniProt entry, the sequences of proteins in these tests, tags left out. Where a name states a change or a piece, a line headed by the entry shows the natural chain unless it says otherwise.
UniProt Q2FKG1: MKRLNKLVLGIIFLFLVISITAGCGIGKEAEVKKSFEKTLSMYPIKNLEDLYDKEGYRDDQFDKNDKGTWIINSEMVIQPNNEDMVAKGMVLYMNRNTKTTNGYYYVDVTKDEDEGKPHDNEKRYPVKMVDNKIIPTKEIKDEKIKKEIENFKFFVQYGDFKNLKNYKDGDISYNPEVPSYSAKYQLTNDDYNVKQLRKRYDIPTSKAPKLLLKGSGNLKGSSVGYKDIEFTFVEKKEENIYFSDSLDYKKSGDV

Molecular target: Sta011 (Staphylococcus aureus) (UniProt Q2FKG1)
Experiment: SEC-HPLC of tetravalent pre-lyophilized formulation; self-association (dimer peak)

With Sta011 (from UniProt Q2FKG1 24-255) the binding was “binds”.
